The text below walks through data of paper PMC5557796, “Ligand binding modes from low resolution GPCR models and mutagenesis: chicken bitter taste receptor as a test-case” (Scientific Reports, 2017).

For the experiment, the target named is T1, ggTas2r1 (Gallus gallus, UniProt Q2AB83).
T1 construct: gene TAS2R40; full-length receptor with in-frame N-terminal sst3-tag and C-terminal hsv-tag in pcDNA5/FRT; transient in HEK 293T stably expressing chimeric Galpha16gust44
T1 sequence (Q2AB83 1-311): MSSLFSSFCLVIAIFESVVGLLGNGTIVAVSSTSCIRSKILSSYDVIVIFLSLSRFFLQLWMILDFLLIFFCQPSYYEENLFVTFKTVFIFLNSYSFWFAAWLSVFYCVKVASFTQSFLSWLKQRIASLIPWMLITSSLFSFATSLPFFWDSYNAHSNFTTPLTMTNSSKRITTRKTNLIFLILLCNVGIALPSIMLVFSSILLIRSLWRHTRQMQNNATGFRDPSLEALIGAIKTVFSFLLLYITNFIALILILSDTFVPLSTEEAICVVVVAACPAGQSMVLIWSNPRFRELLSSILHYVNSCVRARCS
The experiment can be described thus: FLIPR calcium mobilization, Fluo4-AM. Format: cell-based. The conditions noted are these: agonist; HEK 293T with Galpha16gust44. In general terms: Calcium flux is commonly read through the fluorescence of an indicator in the cells.

With `CN(C)CCOC(c1ccccc1)c1ccccc1` [diphenhydramine], the “dose-response ΔF/F” value is “Dose-response relations for the specified compounds in cells expressing point-mutated and native ggTas2r1 constructs”.
